PubChem BioAssay AID2685 (National Center for Advancing Translational Sciences (NCATS), 2010)
The list shows a part of the results. Further columns of the screen follow, without active or inactive calls. Most of these compounds were active or inconclusive in the main read-out, so they are no random draw. Words in brackets tell the shape of the fitted curve; partial curves, single points and poor fits give uncertain potencies.

Assay: qHTS Assay for Lipid Storage Modulators in Drosophila S3 Cells;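 for cell number change: cells counted by Cell Tracker Red CMTPX staining in the red channel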
Conditions: BODIPY lipid droplet fluorescence, 18-24 h; for cell number change: measured here: cell count max response, cells fed with added oleic acid
In short: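 Laser-scanning cytometry quantifies lipid droplet accumulation (500–530 nm total intensity; droplet/cell object ratio) in oleic acid-fed (400 uM added) Drosophila S3 cells treated with a concentration series. 20 uM Triacsin C defined 100% inhibition.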

[1] = measured here: cell number channel AC50, cells fed with added oleic acid
[2] = measured here: lipid fluorescence (Fed channel) AC50, cells fed with added oleic acid

| SMILES | cell number change | AC50 [1] | AC50 [2] |
| --- | --- | --- | --- |
| CCOc1ccccc1C(=O)NCC(=O)NNC(=O)CN(C)S(=O)(=O)c1ccc(Cl)cc1 | 54.6% | 23.1 µM [rising, single point] | 18.4 µM [rising, partial curve] |
| O=C(NCc1ccco1)C1CCN(c2nc3ccccc3n2Cc2ccc(F)cc2)CC1 | 0.184% | – | 8.2 µM [rising, partial curve] |
| COC(=O)c1coc(-c2ccc(OC)cc2)c1C(=O)OC | – | – | 7.31 µM [falling, partial curve, poor fit] |
| CC1C/C(=C/c2cccn2C)C(=O)/C(=C/c2cccn2C)C1 (stereo unspecified) | -172% | 9.2 µM [falling, partial curve] | – |
| CC(=O)c1c(C)oc2ccc(N(C(C)=O)S(=O)(=O)c3ccc(F)cc3C)cc12 | -51.1% | 7.31 µM [falling, partial curve] | – |
| Cc1ccc(S(=O)(=O)NCCC2=CCCCC2)cc1C(N)=O | -45.9% | 13 µM [falling, partial curve, poor fit] | 2.31 µM [falling, partial curve] |
| CC(=O)OCC(=O)Nc1ccc([N+](=O)[O-])cc1Cl | 5.08% | – | – |
| CCCC(C)NC(=O)c1cc(C(=O)OC)cc([N+](=O)[O-])c1 (stereo unspecified) | 1.19% | 0.13 µM [falling, full curve, poor fit] | – |
| CCCCn1c(SCC(=O)NCc2ccco2)nc2ccccc2c1=O | 69.5% | 1.3 µM [rising, full curve] | 23.1 µM [rising, partial curve] |
| COc1cc2c(cc1OC)C(CC#N)=NC(C)(C)C2 | 30.2% | 2.31 µM [rising, full curve] | 0.013 µM [rising, full curve, poor fit] |
| Cc1ccccc1N=C(NOCc1ccccc1)c1nonc1N | -25.9% | – | 16.4 µM [falling, single point] |
| CCN(c1ccccc1)S(=O)(=O)c1ccc(OC)c(N=N/C(C(=O)Nc2ccccc2)=C(/C)O)c1 | -54.3% | 9.2 µM [falling, single point] | 1.46 µM [falling, partial curve] |
| CN(C1CCCCC1)S(=O)(=O)c1ccccc1 | 3.18% | – | 14.6 µM [rising, single point] |
| CCOC(=O)c1c(NC(=O)CSc2nnc(-c3cccnc3)o2)sc(C(C)=O)c1C | -26.8% | – | 0.411 µM [rising, single point] |
| NC(=O)c1ccc(C(F)(F)F)n(Cc2cccc(Cl)c2)c1=O | – | – | 29.1 µM [falling, single point] |
| COc1nc(-c2ccccc2)ccc1-c1noc(-c2ccco2)n1 | – | – | 6.51 µM [rising, single point] |
| Cc1ccccc1OCC(=O)NCC1CCCO1 (stereo unspecified) | 57.9% | 29.1 µM [rising, single point] | 29.1 µM [rising, single point] |
| O=C(NCCc1c[nH]c2ccccc12)C1CCN(S(=O)(=O)c2ccccc2F)CC1 | – | 1.64 µM [rising, single point] | – |
| COc1ccc(S(=O)(=O)N(CC(=O)NCc2ccco2)c2ccccc2OC)cc1 | 21.4% | – | – |

| SMILES | cell number change | AC50 [1] | AC50 [2] |
| --- | --- | --- | --- |
| CCn1nc(C)cc1C(=O)OCC(=O)c1ccc(Cl)cc1 | -0.379% | – | 1.16 µM [rising, single point] |
| Cc1ccccc1C(=O)Oc1cc(N)n(S(=O)(=O)c2ccccc2)n1 | -48.9% | 29.1 µM [falling, single point] | – |
| O=C(O)c1ccccc1C(=O)c1ccc(Oc2ccccc2)cc1 | 11.4% | – | 2.31 µM [falling, single point] |
| CC(=O)Nc1ccc2c(c1)OCO2 | -7.33% | 0.0082 µM [falling, full curve, poor fit] | 0.092 µM [falling, full curve, poor fit] |
| CCOc1ccc(-c2c(=O)n(OCc3ccccn3)c3ccccc3[n+]2[O-])cc1 | -11.7% | – | 25.9 µM [falling, single point] |
| CCOC(=O)C(CC)/C(C)=N\NC(=O)CCC(=O)Nc1ccc(Cl)cc1Cl (stereo unspecified) | 49.2% | 0.00517 µM [rising, full curve] | 0.366 µM [rising, full curve, poor fit] |
| CCN(CC)C(=O)CSc1nc2ccc(NC(=O)CSc3nnc(COc4ccccc4C)n3C)cc2s1 | -12.6% | – | 4.11 µM [falling, partial curve] |
| O=C1C=CC(=O)N1Cc1ccccc1 | – | – | 4.61 µM [falling, full curve] |
| CCc1ccc(S(=O)(=O)/N=C2\C=C(Nc3cccc(C(=O)O)c3)C(=O)c3ccccc32)cc1 | -3.85% | – | – |
| O=C(CNC(=O)c1ccc(F)cc1)NCc1ccc(Cl)cc1 | 60.6% | 29.1 µM [rising, single point] | – |
| CC(C)(C)c1cc(NC(=O)COC(=O)c2nccnc2N)n(-c2ccccc2)n1 | -4.95% | – | 29.1 µM [rising, single point] |
| Cc1cc(C(=O)CSc2nnc(N)s2)c(C)n1CCc1ccc(F)cc1 | 56.5% | 29.1 µM [rising, single point] | 29.1 µM [rising, partial curve] |
| Clc1ccc(NCn2cncn2)nc1 | -3.25% | – | 3.66 µM [falling, single point] |
| CCN(CC)C1CCCCC1NS(=O)(=O)c1ccc(Cl)cc1 (stereo unspecified) | – | – | 0.58 µM [falling, single point] |
| CCOC(=O)c1sc(NC(=O)CCN2C(=O)C3CCCCC3C2=O)cc1C (stereo unspecified) | 14% | – | 20.6 µM [falling, single point] |
| CCN(CC(=O)Nc1c(F)cccc1F)C(=O)CCSc1ccc(C)cc1 | -35.6% | 32.6 µM [falling, single point] | 29.1 µM [falling, single point] |
| Cc1ccc(-c2nc(CS(=O)CC(=O)N3CCN(c4ncccn4)CC3)c(C)o2)cc1 (stereo unspecified) | -23.6% | – | 32.6 µM [falling, single point] |
| CCCN1CCN(c2ccc([N+](=O)[O-])cc2C#N)CC1 | -8.33% | 0.00517 µM [falling, full curve, poor fit] | 0.00461 µM [falling, full curve] |

No new results follow: entries from further up.

| SMILES | cell number change | AC50 [1] | AC50 [2] |
| --- | --- | --- | --- |
| CCc1ccc(S(=O)(=O)/N=C2\C=C(Nc3cccc(C(=O)O)c3)C(=O)c3ccccc32)cc1 | -3.85% | – | – |
| O=C(CNC(=O)c1ccc(F)cc1)NCc1ccc(Cl)cc1 | 60.6% | 29.1 µM [rising, single point] | – |
| CC(C)(C)c1cc(NC(=O)COC(=O)c2nccnc2N)n(-c2ccccc2)n1 | -4.95% | – | 29.1 µM [rising, single point] |
| Cc1cc(C(=O)CSc2nnc(N)s2)c(C)n1CCc1ccc(F)cc1 | 56.5% | 29.1 µM [rising, single point] | 29.1 µM [rising, partial curve] |
| Clc1ccc(NCn2cncn2)nc1 | -3.25% | – | 3.66 µM [falling, single point] |
| CCN(CC)C1CCCCC1NS(=O)(=O)c1ccc(Cl)cc1 (stereo unspecified) | – | – | 0.58 µM [falling, single point] |
| CCOC(=O)c1sc(NC(=O)CCN2C(=O)C3CCCCC3C2=O)cc1C (stereo unspecified) | 14% | – | 20.6 µM [falling, single point] |
